# Percent effect of library compounds

By UniProt entry, the sequences of proteins in these tests, tags left out.
UniProt P9WFT3, whole entry: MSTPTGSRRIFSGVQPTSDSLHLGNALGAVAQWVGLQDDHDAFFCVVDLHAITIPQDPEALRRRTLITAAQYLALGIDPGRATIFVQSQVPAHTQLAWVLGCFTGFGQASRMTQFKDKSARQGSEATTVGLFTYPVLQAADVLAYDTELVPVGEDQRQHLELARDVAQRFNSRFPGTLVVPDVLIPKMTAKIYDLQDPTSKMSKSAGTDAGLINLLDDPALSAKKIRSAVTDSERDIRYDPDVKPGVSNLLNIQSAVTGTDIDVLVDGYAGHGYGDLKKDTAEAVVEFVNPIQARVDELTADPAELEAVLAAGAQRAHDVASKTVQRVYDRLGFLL
UniProt P9WNZ1, whole entry: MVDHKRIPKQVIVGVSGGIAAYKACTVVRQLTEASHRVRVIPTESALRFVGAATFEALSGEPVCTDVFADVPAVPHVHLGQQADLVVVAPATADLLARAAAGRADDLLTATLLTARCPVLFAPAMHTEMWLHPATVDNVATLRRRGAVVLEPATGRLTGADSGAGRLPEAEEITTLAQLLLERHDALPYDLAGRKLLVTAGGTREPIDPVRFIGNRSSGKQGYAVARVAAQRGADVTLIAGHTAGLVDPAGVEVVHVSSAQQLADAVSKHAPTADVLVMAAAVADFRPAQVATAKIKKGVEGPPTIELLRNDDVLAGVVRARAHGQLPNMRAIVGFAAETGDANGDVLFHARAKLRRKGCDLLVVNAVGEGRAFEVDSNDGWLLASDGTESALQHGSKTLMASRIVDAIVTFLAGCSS

Source: ChEMBL document CHEMBL3988442, “University of Dundee, Small-Polar-MMV Screening Library” (2021).

A: 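Cell assay of Leishmania donovani living inside macrophages; the read-out is not stated. Compounds at 30 µM. The record gives no direction; compounds that gave an IC50 in retests scored well above the rest, so higher reads as stronger inhibition. Of about 69,000 compounds tested this way, about 1,000 (1.5%) reached 50% or more in at least one test.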
B: 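Enzyme assay of tryptophanyl-tRNA synthetase; the read-out is not stated. Target: Tryptophan-tRNA ligase, Mycobacterium tuberculosis (UniProt P9WFT3). Concentration: 10 µM. Higher most likely means stronger inhibition; the record gives no direction and few retests gave an IC50. About 65,000 compounds were tested under these conditions; 0.098% (about 64) showed 50% or more at least once.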
C: 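Assay of Toxoplasma gondii numbers, read through their beta-galactosidase reporter with a colour substrate. Tested at 10 µM. Higher reads as fewer parasites (inferred from which compounds were picked for retests). Of about 67,000 compounds tested this way, about 260 (0.38%) reached 50% or more in at least one test.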
D: 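Coenzyme A biosynthesis protein CoaBC, Mycobacterium tuberculosis (UniProt P9WNZ1). Enzyme assay of CoaBC with a phosphate dye (Biomol Green) read at 650 nm. Tested at 30 µM. Higher reads as stronger inhibition, judged from the few compounds that gave an IC50. Most strong results did not repeat in a second test. About 67,000 compounds were tested under these conditions; 0.06% (about 40) showed 50% or more at least once.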

The filed quantity is “Percent Effect” (%).
The record does not define 0% and 100%; most values in the screen are far below 50% and negative numbers occur (in some assays of this library far below -100).
This is an unselected part of the compounds tested.
Two or more numbers in one place are separate tests of the same structure; such repeats can differ widely.

SMILES: COc1ncccc1C(=O)N1CCCC1c1c(C)n[nH]c1C (centres unmarked)
A: 18%
B: -2.949%
C: -2.581%
D: -1.229%

SMILES: CCn1cc(-c2cc(C(F)(F)F)nc(NC3CCCC3)n2)c(C)n1
A: 2.488%
B: 1.713%
C: 70.55%
D: 34.68% & 3.608%

SMILES: O=C(C1CCOC1)N1CCc2ncnc(C3CC3)c2CC1 (centres unmarked)
A: -4.633%
B: -4.182%
C: 6.527%
D: -2.581%

SMILES: c1coc(-c2nc(CNCCn3cccn3)cs2)c1
A: 27.23%
B: -35.36%
C: -21.73%
D: 3.316%

SMILES: [H][C@]12CNC[C@@]1(C(=O)NCCCc1ccccc1)CN(S(C)(=O)=O)C2
A: 29.6%
C: -5.706%

SMILES: O=C(c1cccc(C2CCNC2)c1)N1CCC(c2ccncc2)CC1 (centres unmarked)
A: -42.92%
B: -0.6798%
C: -21.56%
D: 4.937%

SMILES: N#Cc1ccc(CNc2cnn(CCN3CCOCC3)c2)cc1
A: 23.6%
B: 4.009%
C: -6.439%
D: -3.944%

SMILES: O=C(CN(Cc1cccnc1)CC1CCCO1)Nc1ccc(F)cc1 (centres unmarked)
A: 13.17%
B: 1.212%
C: -2.408%
D: -0.2132%

SMILES: CC(C)c1nc(C2CCCN2Cc2nccn2CC(F)(F)F)no1 (centres unmarked)
A: 7.376%
B: -0.7787%
C: -58.52%
D: -7.273%

SMILES: O=C(O)C(F)(F)F.O=C(c1ccncc1)N1CCCC2(COCCN(c3ccccc3)C2)C1 (centres unmarked)
A: -2.858%
C: -5.156%

SMILES: O=C(O)C(F)(F)F.[H][C@@]12COC[C@]1(c1nc(C)no1)CN(C(=O)CN(C)C)C2
A: 7.11%
C: -14.31%

SMILES: CCc1ccc(CNC(=O)NC2CCCc3c2cnn3CCO)s1 (centres unmarked)
A: 21.53%
B: 0.3621%
C: 3.488%
D: 9.091%

SMILES: COc1cc(N(C)Cc2cc(C(C)(C)C)n[nH]2)ncn1
A: 1.348%
B: -1.891%
C: 1.699%
D: 5.521%

SMILES: CC(C)(C)CC(NC(=O)N1CCS(=O)(=O)CC1)C(F)(F)F (centres unmarked)
A: 10.22%
B: -0.6256%
C: -13.3%
D: 12.13%

SMILES: [H][C@@]12CS(=O)(=O)C[C@]1([H])N(Cc1ccc(C)c(C)c1)CCN2CC(=O)N(C)C
A: 18.74%
C: 3.806%

SMILES: CCN(Cc1cn(C)nc1-c1ccc2c(c1)OCCO2)CC1CCCO1 (centres unmarked)
A: 40.43%
B: -2.402%
C: 11.69%
D: -0.1233%

SMILES: CN(CCc1ncnn1-c1ccccc1Cl)C1CCS(=O)(=O)C1 (centres unmarked)
A: -30.93%
B: 1.683%
C: 8.439%
D: 7.905%

SMILES: Cc1cc(CNC(=O)C2CCN(CC(N)=O)CC2)cc(C)n1
A: -8.319%
B: 2.547%
C: -2.055%
D: 4.146%

SMILES: O=C(CC1CCCC1)Nc1ccc(-n2cc(Cl)cn2)nc1
A: -14.86%
B: -0.07003%
C: 3.514%
D: 3.283%

SMILES: CCN1CCCC1CNC(=O)c1cc(COc2ccccc2F)[nH]n1 (centres unmarked)
A: -5.81%
B: 0.6101%
C: 4.681%
D: -1.555%

SMILES: O=C(O)C(F)(F)F.[H][C@@]12CCN(Cc3nccs3)C[C@@]1([H])O[C@@H](C(=O)NC)C2
A: -23.74%
C: 5.269%

2 of the entries, repeated:

SMILES	A	B	C	D
O=C(C1CCOC1)N1CCc2ncnc(C3CC3)c2CC1 (centres unmarked)	-4.633%	-4.182%	6.527%	-2.581%
CC(C)(C)CC(NC(=O)N1CCS(=O)(=O)CC1)C(F)(F)F (centres unmarked)	10.22%	-0.6256%	-13.3%	12.13%